In PubChem BioAssay AID540276 (National Center for Advancing Translational Sciences (NCATS), 2011):
About 5,400 (1.8%) of roughly 300,000 compounds were called active. The shares of active, inactive and inconclusive entries below differ from those in the screen. Calls come from the whole dose curve; tested in HEK293 cells. A potency beside an inconclusive call is a rough fit, not a confirmed value.
Potency is the fitted concentration of half-maximal effect.

Experiment: qHTS for inhibitors of binding or entry into cells for Marburg Virus
Conditions: Marburg virus pseudotyped entry inhibition, cell reporter; series mostly up to 37.8 µM
In the case of `COc1cc(/C=N/NC(N)=O)cc(Br)c1OCc1ccc(C)cc1`, the Potency was inconclusive: 1.41 µM [inhibitor, partial curve, poor fit].
For `c1ccc2oc(Cc3ccc(Cc4nc5ccccc5o4)cc3)nc2c1`, the Potency was inconclusive: 5.8 µM [inhibitor, full curve].
In the case of `CCOC(=O)c1nnn(-c2nonc2N)c1CN(C)C1CCCCC1`, the Potency was inconclusive: 15.8 µM [activator, partial curve, poor fit].
For `CCOc1ccc(C(C(=O)NCC2CCCO2)N(Cc2ccccc2)C(=O)c2snc(C(N)=O)c2N)cc1` (stereo unspecified), the Potency was inconclusive: 8.91 µM [inhibitor, partial curve, poor fit].
With `COc1ccc(C=NNC(=O)c2ccccc2NS(=O)(=O)c2cccs2)cc1O` the Potency was inconclusive: 5.62 µM [activator, single point].
For `CCCn1c(SCC(=O)Nc2nc3c(s2)CCCC3)nc2c1c(=O)n(C)c(=O)n2C`, the Potency was “inactive”.
With `COc1cc(CNCCc2ccccc2)ccc1OCC(=O)NC(C)(C)C` the Potency was active: 11.2 µM.
With `COc1ccc(CNC(=O)Cc2ccc(-c3ccccc3)cc2)cc1OC` the Potency was inconclusive: 31.6 µM [inhibitor, partial curve, poor fit].
In the case of `COc1ccc(C)cc1NC(=O)c1c(C(=O)Nc2cccc(C)c2C)sc2nc(C)cc(=O)n12`, the Potency was inconclusive: 6.31 µM [inhibitor, partial curve, poor fit].
For `Cc1cc(C)c(S(=O)(=O)/N=C2\C=C(Nc3ccc(C(=O)O)cc3)C(=O)c3ccccc32)c(C)c1`, the Potency was active: 5.62 µM.
In the case of `COc1cccc(-c2nn(C)c3sc(C(=O)NCCc4cccc(C)c4)cc23)c1`, the Potency was inconclusive: 10 µM [inhibitor, partial curve, poor fit].
In the case of `c1ccc(-c2cc3nccc(-c4ccccn4)n3n2)cc1`, the Potency was inconclusive: 35.5 µM [inhibitor, single point].
For `Cc1nnc(N2CCN(c3cccc(Cl)c3)CC2)c2c1nnn2Cc1ccc(F)cc1`, the Potency was “inactive”.
With `C=CCOC(=O)N[C@H](c1ccccc1)C(C(C)=O)C(C)=O` the Potency was inconclusive: 1.33 µM [inhibitor, partial curve, poor fit].
With `Cc1ccc(CCNC(=O)c2nn(C)c3c2CS(=O)(=O)c2ccccc2-3)cc1` the Potency was inconclusive: 3.16 µM [inhibitor, partial curve, poor fit].
In the case of `CCOc1cc(/C=N\Nc2ncc(F)c(N3CCOCC3)n2)ccc1Oc1nc(Cl)ncc1F`, the Potency was inconclusive: 35.5 µM [inhibitor, partial curve, poor fit].
With `COc1cc(/C=C(\NC(=O)c2ccccc2)C(=O)Nc2cccc(O)c2)c([N+](=O)[O-])cc1OC` the Potency was inconclusive: 6.31 µM [inhibitor, single point].
In the case of `COc1ccc(NC(=O)COC(=O)CCSc2ccccc2)cc1`, the Potency was inconclusive: 35.5 µM [inhibitor, single point].
In the case of `CN(C)C(=O)c1cn(-c2ccccc2)nc1-c1cc2ccccc2o1`, the Potency was inconclusive: 6.51 µM [inhibitor, single point].
In the case of `CC(=O)Nc1cc2ccccc2oc1=O`, the Potency was “inactive”.
With `O=C(CNc1ccc(F)cc1)N/N=C/C1CC=CCC1` (stereo unspecified) the Potency was “inactive”.
With `COc1cc(NC(=O)C2CC(c3c(F)cccc3Cl)=NO2)cc(OC)c1OC` (stereo unspecified) the Potency was inconclusive: 3.98 µM [inhibitor, full curve, poor fit].
For `CC(C)Cn1c(N)c(C(=O)CSc2nnc(C3CC3)n2C2CC2)c(=O)n(C)c1=O`, the Potency was “inactive”.
In the case of `Cc1cc(-c2nc3ncccc3o2)ccc1N`, the Potency was “inactive”.
For `COc1ccccc1NS(=O)(=O)c1cccc(C(=O)OCc2nc3ccccc3s2)c1`, the Potency was “inactive”.
In the case of `CNC(=O)/C(C#N)=C/c1c(N(Cc2ccccc2)Cc2ccccc2)nc2ccccn2c1=O`, the Potency was active: 15.8 µM.
In the case of `CN1CCC2(CC1)N=C(c1ccc(F)cc1)C(=S)N2C(=O)c1ccc(C(C)(C)C)cc1`, the Potency was inconclusive: 35.5 µM [inhibitor, single point].
With `COCCN1C(=O)NC(c2cccc(F)c2)C(C(C)=O)=C1C` (stereo unspecified) the Potency was “inactive”.
In the case of `Cc1ccc(-c2csc3nnc(SCC(=O)Nc4nsc(-c5ccccc5)n4)n23)cc1`, the Potency was “inactive”.
With `O=C1/C(=C\c2cccs2)Sc2ccc3ccccc3c21` the Potency was inconclusive: 1.64 µM [activator, partial curve].
In the case of `COc1ccccc1Nc1c2c(nc3ccc(NC(=O)c4ccc(OC)c(OC)c4)cc13)CCCC2`, the Potency was active: 2.24 µM.
For `O=c1c2ccccc2nc(-c2cccs2)n1-c1cccc2ccccc12`, the Potency was inconclusive: 12.6 µM [inhibitor, partial curve, poor fit].
With `COc1ccc(CCNC(=O)c2ccc3c(c2)CCN3S(=O)(=O)c2ccccc2)cc1OC` the Potency was “inactive”.
In the case of `CCC(C)(C)C1CCc2nc3ccccc3c(C(=O)OC(C)C(=O)Nc3c(C)n(C)n(-c4ccccc4)c3=O)c2C1` (stereo unspecified), the Potency was inconclusive: 12.6 µM [inhibitor, single point].
With `NS(=O)(=O)c1ccc(N2N=C(c3ccccc3)CC2c2ccccc2)cc1` (stereo unspecified) the Potency was inconclusive: 3.16 µM [inhibitor, single point].
For `O=C(NCCC(=O)N1CCN(S(=O)(=O)c2ccccc2)CC1)c1ccc(Br)cc1`, the Potency was inconclusive: 0.794 µM [activator, full curve, poor fit].
For `c1coc(CNc2nc3ccccc3s2)c1`, the Potency was inconclusive: 1.58 µM [activator, partial curve, poor fit].
For `CC(C)(O)C#Cc1ccc(C(=O)N2CCN(c3ccc([N+](=O)[O-])cc3)CC2)cc1`, the Potency was inconclusive: 17.8 µM [inhibitor, partial curve, poor fit].
In the case of `COc1ccc(NC(=O)c2sc3nc4c(cc3c2N)CCCCCC4)c(OC)c1`, the Potency was “inactive”.
For `O=C(COC(=O)c1ccccc1OCC(=O)Nc1ccc(Br)cc1)Nc1ccccc1`, the Potency was inconclusive: 5.01 µM [inhibitor, full curve, poor fit].
In the case of `O=C(CC1=NC2(CCCC2)Cc2ccccc21)N1CCOCC1`, the Potency was inconclusive: 29.1 µM [inhibitor, single point].
In the case of `COc1ccccc1NC(=O)CSc1nnc(C2CCCCC2)n1-c1ccccc1`, the Potency was inconclusive: 28.2 µM [inhibitor, single point].
With `Cc1nc(-c2nnc(SCC(=O)Nc3ccc(C(F)(F)F)cc3)n2C)cs1` the Potency was inconclusive: 8.91 µM [inhibitor, partial curve, poor fit].
With `O=C(NNC(=O)c1cc2ccccc2oc1=O)c1ccccc1[N+](=O)[O-]` the Potency was inconclusive: 6.31 µM [inhibitor, single point].
In the case of `CCCN1CCN(CCCNC(=O)c2cc3c(=O)[nH]c4ccc(C)cc4c3s2)CC1`, the Potency was inconclusive: 25.1 µM [inhibitor, single point].
In the case of `COc1ccc(/C=C/C(=O)O)cc1OC`, the Potency was “inactive”.
For `CCOC(=O)c1[nH]nc(-c2cc(CC)c(O)cc2O)c1-c1cscn1`, the Potency was inconclusive: 0.517 µM [inhibitor, partial curve, poor fit].
With `CCCc1sc(N/N=C/c2ccccn2)nc1-c1ccc(F)cc1` the Potency was inconclusive: 5.8 µM [inhibitor, full curve].
For `COc1ccc(C(=O)N2CCC(C(=O)c3ccc(F)cc3)CC2)cc1`, the Potency was inconclusive: 20 µM [inhibitor, single point].
In the case of `Cc1ccc(C(=O)Nc2ccc3ncccc3c2)cc1`, the Potency was inconclusive: 5.01 µM [inhibitor, full curve, poor fit].
For `COc1cc(OC)cc(OCC(O)Cn2cnc(-c3ccccc3)c2)c1` (stereo unspecified), the Potency was “inactive”.
For `O=S(=O)(Nc1cccc(-c2ccc3nncn3n2)c1)c1ccc(Cl)s1`, the Potency was inconclusive: 11.2 µM [inhibitor, partial curve, poor fit].
In the case of `Cc1ccccc1-n1c(SCC(=O)c2cc(C)n(C)c2C)nnc1-c1cccnc1`, the Potency was inconclusive: 35.5 µM [inhibitor, single point].
In the case of `Cc1cc(C)c(NC(=O)CCN2CCN(Cc3ccccc3)CC2)c(C)c1`, the Potency was inconclusive: 14.1 µM [inhibitor, partial curve, poor fit].
For `Cc1cccc(/C=C/c2nc3ccccc3c(=O)n2Cc2ccccc2)c1`, the Potency was inconclusive: 15.8 µM [inhibitor, single point].
In the case of `COc1ccccc1N(CC(=O)N1CCC(C)CC1)S(=O)(=O)c1ccc(C)cc1`, the Potency was “inactive”.
For `Cc1cc(NC(=O)CCN2C(=O)C3C4CCC(C4)C3C2=O)c(C)cc1Br` (stereo unspecified), the Potency was “inactive”.
In the case of `COc1ccc(/C=N/Nc2nc(-c3cccc(S(=O)(=O)N4CCCC4)c3)cs2)c(OC)c1`, the Potency was inconclusive: 10 µM [inhibitor, partial curve].
In the case of `CCN(C(=O)Cn1nc(Cc2ccncc2)c2ccccc2c1=O)c1cccc(Cl)c1`, the Potency was “inactive”.
For `Cc1ccc(CNS(=O)(=O)c2cc(F)ccc2CN2C(=O)c3cccnc3C2=O)o1`, the Potency was “inactive”.
For `CCOC(=O)N1CCN(c2ccc(Cl)cc2)CC1`, the Potency was inconclusive: 0.631 µM [activator, full curve, poor fit].
With `Cn1c(=O)[nH]c(=O)c2c1nc(Sc1nc3ccccc3s1)n2Cc1ccccc1` the Potency was inconclusive: 10 µM [inhibitor, partial curve, poor fit].
For `CCOC(=O)c1cnc2c(c(C)nn2C)c1Oc1cc(Cl)cc(Cl)c1`, the Potency was inconclusive: 7.08 µM [inhibitor, partial curve, poor fit].
For `CCOc1ccc(NC(=S)NC(C)c2cccs2)cc1` (stereo unspecified), the Potency was “inactive”.
With `O=C(Cc1ccc(Cl)cc1)Oc1cccc2cccnc12` the Potency was “inactive”.
In the case of `O=C(CSc1nnc(NC(=O)C2CC2)s1)Nc1cccc(F)c1`, the Potency was inconclusive: 5.62 µM [inhibitor, single point].
